Where a name gives a salt, the structure may show the parent alone. Some results come without the dose or concentration used.

This data set deals with human volunteers. Description: Palatability of the drug samples using human volunteers (taste scale 1-10, Table 52). Particulars: average of individual volunteers. Type of data set: in vivo.
Take `O=C(O)c1cn(C2CC2)c2cc(N3CCNCC3)c(F)cc2c1=O` [ciprofloxacin]: the “Taste scale of samples: Drug in water (Solution A)” value (“Taste scale of samples: Drug” for short) came out at 3.

For the compound `O=C(O)COCCN1CCN(C(c2ccccc2)c2ccc(Cl)cc2)CC1` (stereo not shown) [cetirizine hydrochloride], the “Taste scale of samples: Drug” value is 3. With `CC(=O)Nc1ccc(O)cc1` [paracetamol], the “Taste scale of samples: Drug” value came to 2.

Consider `CC(C)Cc1ccc(C(C)C(=O)O)cc1` (stereo not shown) [ibuprofen], for which the “Taste scale of samples: Drug” value is recorded as 3.

In the case of `O=C(O)COCCN1CCN([C@H](c2ccccc2)c2ccc(Cl)cc2)CC1` [levocetirizine hydrochloride], the “Taste scale of samples: Drug” value is reported as 3. As for `CN(C)CCC(c1ccc(Cl)cc1)c1ccccn1` (stereo not shown) [chlorpheniramine maleate], the figure is 4; as for `COc1ccc2c(c1)[C@]13CCCC[C@@H]1[C@H](C2)N(C)CC3` [dextromethorphan hydrobromide], 4; as for `CNC(=C[N+](=O)[O-])NCCSCc1ccc(CN(C)C)o1` [Ranitidine, ranitidine hydrochloride], 1. As to `C=C[C@H]1C[N@@]2CC[C@H]1C[C@H]2[C@H](O)c1ccnc2ccc(OC)cc12` [quinine], the “Taste scale of samples: Drug” value was determined as 1. On to `CC(=O)Oc1ccccc1C(=O)O` [aspirin, acetylsalicylic acid], for which the “Taste scale of samples: Drug” value came out at 4.

In the case of `COc1cc2c(c(OC)c1OC)-c1ccc(OC)c(=O)cc1[C@@H](NC(C)=O)CC2` [colchicine], the “Taste scale of samples: Drug” value is given as 2. In the case of `CC[C@H]1OC(=O)[C@H](C)[C@@H](O[C@H]2C[C@@](C)(OC)[C@@H](O)[C@H](C)O2)[C@H](C)[C@@H](O[C@@H]2O[C@H](C)C[C@H](N(C)C)[C@H]2O)[C@](C)(O)C[C@@H](C)C(=O)[C@H](C)[C@@H](O)[C@]1(C)O` [erythromycin] it was 3. In the case of `C[C@@H](NCCCc1cccc(C(F)(F)F)c1)c1cccc2ccccc12` [cinacalcet hydrochloride] it was 2.

The values are drawn from patent publication US12508315B2 (Hyloris Developments SA, priority 2023, dated 2025).
